Screen size: about 330,000 compounds; about 7,700 (2.3%) were called active. Inconclusive means that the source gave no clear call. Such entries were picked first, then a sample of the others. Calls come from the whole dose curve; as a rule, active = well fitted inhibition curve with a large enough effect; inconclusive = small, poorly fitted or top-dose-only effect, or effect the other way; inactive = flat fitted curve, though single readings scatter. Potencies beside an inconclusive call are fits to weak or partial responses and may not hold up.
Test: qHTS screen for small molecules that inhibit ELG1-dependent DNA repair in human embryonic kidney (HEK293T) cells expressing luciferase-tagged ELG1; note: nearly all actives have a fitted effect of over 55% in size
Conditions: HEK293T ELG1-luciferase reporter, luminescence, 16 h, DNA damage induced by 5-fluorouridine; activity change, negative = inhibition: at 46.1 µM (top of the series)
Method in brief: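 Quantitative HTS, concentration-response format. 2,000 cells/well co-treated with 5-fluorouridine and compound, 16 hr in 5% CO2 at 37 °C; ONE-Glo luminescence read after 30 min.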
For COc1ccccc1OCc1cc(C(=O)N2CCCC(OCc3cccnc3)C2)no1 (centres undefined), the Potency was inconclusive: 10.3 µM [activator, partial curve].
With CCOc1ccc(NC(=O)CN(C)CC(=O)Nc2ccccc2C#N)cc1OCC the Potency was inconclusive: 23.1 µM [inhibitor, partial curve, poor fit].
For CCC(CC)NC(=O)c1ccc2c(c1)OCCO2, the Potency was inconclusive: 18.4 µM [activator, partial curve, poor fit].
With O=C(Nc1ccnn1C1CCN(Cc2ccccn2)CC1)c1cccc(F)c1 the “activity change, negative = inhibition” value was inactive: 17.5%.
In the case of CCOc1nc(NCCO)nc(Nc2ccccc2F)n1, the “activity change, negative = inhibition” value is reported as inactive: 11%.
In the case of Cc1cccnc1NC(=O)Cn1nc(-c2ccccc2)oc1=S, the Potency is reported as inconclusive: 5.17 µM [activator, partial curve].
For COc1ccc(/C=C/c2ccc3ccccc3[n+]2C)cc1OC, the Potency was inconclusive: 16.4 µM [activator, partial curve].
In the case of Cc1cccc(OCCc2c(C)[nH]c(=S)[nH]c2=O)c1, the Potency is reported as inconclusive: 5.17 µM [inhibitor, full curve].
For Nc1nc(-c2ccc(Cl)cc2)c(S(=O)(=O)c2ccccc2)s1, the Potency was inconclusive: 29.1 µM [inhibitor, single point].
In the case of Cc1csc2nc(COC(=O)c3ccc(Cl)c([N+](=O)[O-])c3)cc(=O)n12, the “activity change, negative = inhibition” value is reported as inactive: 9.79%.
For CCn1c(C(=O)O)c(CC(=O)Nc2cccc(C(F)(F)F)c2)c2ccccc21, the Potency was inconclusive: 16.4 µM [inhibitor, partial curve, poor fit].
With Cc1nc2ccc(-c3nc4cc(N)ccc4o3)cc2[nH]1 the Potency was inconclusive: 1.3 µM [activator, partial curve].
In the case of O=C(Cn1nc(-c2ccco2)ccc1=O)Nc1cc(C(F)(F)F)ccc1Cl, the “activity change, negative = inhibition” value is reported as inactive: -7.33%.
With COc1ccc(CCN2CC(C(=O)Nc3ccc(S(C)(=O)=O)cc3)CC2=O)cc1OC (centres undefined) the “activity change, negative = inhibition” value was inactive: 8.23%.
For Cc1csc(SCC(=O)Nc2cccc(S(=O)(=O)N3CCCC3)c2)n1, the Potency was inconclusive: 13 µM [inhibitor, partial curve].
For CC(C)C1N=C2c3ccccc3N=C(SCC(=O)NCCc3ccc(S(N)(=O)=O)cc3)N2C1=O (centres undefined), the Potency was inconclusive: 20.6 µM [inhibitor, partial curve, poor fit].
For CCCc1ccc2oc(C(=O)NCCCN3CCOCC3)c(C)c2c1, the Potency was inconclusive: 14.6 µM [activator, partial curve].
For CCn1cc(C(=O)NCc2ccncc2)c(=O)c2cc(F)c(N3CCN(C(=O)c4ccco4)CC3)cc21, the Potency was inconclusive: 18.3 µM [inhibitor, single point].
In the case of COC(=O)c1[nH]c2ccc(C)cc2c1NC(=O)CCN1CCN(Cc2ccc3c(c2)OCO3)CC1, the Potency is reported as inconclusive: 29.1 µM [inhibitor, single point].
% is set by controls: 0 for no effect and ±100 for the full control effect; potency is the fitted concentration of half-maximal effect.
